From patent publication US20240425575A1
These are yes or no findings as the source states them, for the method shown. Some results given as binding are weak or reduced against the parent protein; the word gives no strength.

By UniProt entry, the sequences of proteins in these tests, tags left out. Residues count along the entry.
UniProt Q02763, residues 23-1124: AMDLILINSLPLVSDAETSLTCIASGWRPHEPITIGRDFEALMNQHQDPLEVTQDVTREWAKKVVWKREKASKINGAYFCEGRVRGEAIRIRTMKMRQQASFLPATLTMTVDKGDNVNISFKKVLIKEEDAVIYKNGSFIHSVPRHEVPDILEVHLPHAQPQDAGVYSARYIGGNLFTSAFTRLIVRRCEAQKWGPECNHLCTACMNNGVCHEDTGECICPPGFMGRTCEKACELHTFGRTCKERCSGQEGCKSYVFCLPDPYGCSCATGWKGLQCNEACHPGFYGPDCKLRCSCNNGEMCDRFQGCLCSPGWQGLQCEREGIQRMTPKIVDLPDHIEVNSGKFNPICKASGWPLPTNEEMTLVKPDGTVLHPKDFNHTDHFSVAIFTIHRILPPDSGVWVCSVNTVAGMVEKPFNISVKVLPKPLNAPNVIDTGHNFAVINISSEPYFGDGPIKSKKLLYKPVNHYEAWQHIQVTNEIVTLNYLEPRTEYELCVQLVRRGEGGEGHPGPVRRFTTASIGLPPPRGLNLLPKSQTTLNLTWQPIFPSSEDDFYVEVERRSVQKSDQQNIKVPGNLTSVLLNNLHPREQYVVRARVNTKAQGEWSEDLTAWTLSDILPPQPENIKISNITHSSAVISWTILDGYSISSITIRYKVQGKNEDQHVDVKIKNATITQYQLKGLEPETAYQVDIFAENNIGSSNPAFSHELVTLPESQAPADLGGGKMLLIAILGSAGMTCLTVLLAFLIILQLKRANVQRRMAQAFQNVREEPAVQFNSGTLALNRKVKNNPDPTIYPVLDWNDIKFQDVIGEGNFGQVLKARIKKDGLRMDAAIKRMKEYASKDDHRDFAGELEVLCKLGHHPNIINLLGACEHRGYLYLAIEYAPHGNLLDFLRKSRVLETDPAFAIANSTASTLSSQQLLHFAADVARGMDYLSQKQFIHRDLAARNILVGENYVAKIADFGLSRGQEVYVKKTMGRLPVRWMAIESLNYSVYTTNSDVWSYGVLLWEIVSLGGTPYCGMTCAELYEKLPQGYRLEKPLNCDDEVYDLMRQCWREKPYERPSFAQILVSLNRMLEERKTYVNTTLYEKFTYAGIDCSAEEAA
UniProt O15123, residues 19-496: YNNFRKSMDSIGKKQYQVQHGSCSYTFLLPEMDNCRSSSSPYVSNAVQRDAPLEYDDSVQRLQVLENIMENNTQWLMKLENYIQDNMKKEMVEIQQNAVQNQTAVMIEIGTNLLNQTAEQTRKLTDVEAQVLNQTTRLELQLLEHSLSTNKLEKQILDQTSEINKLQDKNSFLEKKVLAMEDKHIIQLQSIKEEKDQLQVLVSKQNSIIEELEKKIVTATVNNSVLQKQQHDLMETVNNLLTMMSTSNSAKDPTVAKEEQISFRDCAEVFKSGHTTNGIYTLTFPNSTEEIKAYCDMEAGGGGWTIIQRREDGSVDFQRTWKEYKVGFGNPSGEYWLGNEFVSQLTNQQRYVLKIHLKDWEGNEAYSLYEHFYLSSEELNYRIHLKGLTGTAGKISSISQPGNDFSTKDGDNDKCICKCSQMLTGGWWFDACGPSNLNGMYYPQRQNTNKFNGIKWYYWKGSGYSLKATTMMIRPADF

Target: receptors TIE2 of ANG2 on HUVEC cells (human) (UniProt Q02763)
Test: flow cytometry, His-tagged human ANG2 (10 ug/mL) on HUVEC cells, PE anti-His

binding: binds
Substance: human ANG2 protein (623-AN-025/CF, R&D) (from UniProt O15123 19-496) (ligand)
